Results from paper PMC5226524.

Chains of the proteins cited; added tags and fusions are not shown. Lines headed by an entry give the natural chain unless they say otherwise; changes in a name come on top.
UniProt Q53EP0: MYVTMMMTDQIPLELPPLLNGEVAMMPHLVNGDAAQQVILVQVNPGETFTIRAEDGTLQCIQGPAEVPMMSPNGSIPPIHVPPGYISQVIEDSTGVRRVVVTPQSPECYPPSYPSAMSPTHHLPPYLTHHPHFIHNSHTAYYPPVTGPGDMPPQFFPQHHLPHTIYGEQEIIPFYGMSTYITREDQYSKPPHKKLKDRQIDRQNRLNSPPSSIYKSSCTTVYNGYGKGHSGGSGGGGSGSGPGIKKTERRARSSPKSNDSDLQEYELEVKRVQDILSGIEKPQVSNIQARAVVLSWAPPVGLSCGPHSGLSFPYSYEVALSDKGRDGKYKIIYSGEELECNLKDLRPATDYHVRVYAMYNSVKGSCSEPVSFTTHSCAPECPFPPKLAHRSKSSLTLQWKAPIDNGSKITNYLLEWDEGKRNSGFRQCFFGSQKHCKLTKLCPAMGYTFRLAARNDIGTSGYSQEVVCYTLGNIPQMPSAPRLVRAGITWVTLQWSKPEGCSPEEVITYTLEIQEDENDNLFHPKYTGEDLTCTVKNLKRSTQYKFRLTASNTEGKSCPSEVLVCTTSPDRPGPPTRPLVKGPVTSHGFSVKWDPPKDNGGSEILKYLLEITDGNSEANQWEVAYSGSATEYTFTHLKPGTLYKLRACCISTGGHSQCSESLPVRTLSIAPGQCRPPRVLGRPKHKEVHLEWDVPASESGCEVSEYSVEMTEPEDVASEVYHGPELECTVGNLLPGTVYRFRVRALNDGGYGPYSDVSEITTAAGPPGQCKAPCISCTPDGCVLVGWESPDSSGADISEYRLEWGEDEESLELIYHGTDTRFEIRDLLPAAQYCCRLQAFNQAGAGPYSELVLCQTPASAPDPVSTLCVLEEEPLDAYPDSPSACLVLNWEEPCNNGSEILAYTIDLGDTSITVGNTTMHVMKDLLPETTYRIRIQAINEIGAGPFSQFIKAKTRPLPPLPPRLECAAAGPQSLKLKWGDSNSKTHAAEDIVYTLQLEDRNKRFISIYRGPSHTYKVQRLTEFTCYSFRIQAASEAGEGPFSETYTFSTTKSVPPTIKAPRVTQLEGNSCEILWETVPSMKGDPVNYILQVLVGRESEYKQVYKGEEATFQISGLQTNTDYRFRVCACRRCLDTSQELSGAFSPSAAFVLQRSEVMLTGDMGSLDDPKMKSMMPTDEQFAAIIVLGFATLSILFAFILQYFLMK
UniProt P07355: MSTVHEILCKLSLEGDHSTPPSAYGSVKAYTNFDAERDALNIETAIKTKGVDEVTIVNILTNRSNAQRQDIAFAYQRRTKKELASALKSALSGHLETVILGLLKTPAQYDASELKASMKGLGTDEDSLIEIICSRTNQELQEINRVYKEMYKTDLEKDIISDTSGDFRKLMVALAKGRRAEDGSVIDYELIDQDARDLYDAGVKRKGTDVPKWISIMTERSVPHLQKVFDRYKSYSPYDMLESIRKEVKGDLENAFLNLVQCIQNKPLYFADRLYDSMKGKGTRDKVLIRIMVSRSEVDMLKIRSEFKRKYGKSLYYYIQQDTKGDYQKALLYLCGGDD

Target: FNDC3B Δ1~4 mutant (deletion of FNIII domains 1-4) (human) (UniProt Q53EP0)
Assay: affinity purification with mass spectrometry; co-IP of wild type FNDC3B and Δ1~4 mutant; differentially bound protein bands picked from SDS-PAGE, in-gel digestion, LC-MS/MS

annexin A2 (ANXA2) (from UniProt P07355 1-339)
binding: no binding

No constants are given. Whether binding was seen depends on the method and setting. In cells and extracts the contact can be indirect. A yes stands for co-enrichment or nearness to the bait. Other partners may have been found. A no says only that the protein was not detected with the bait.
